# Source: the supplement of paper PMC11006884
# The chains behind the UniProt entries cited, without tags or fusion partners. Where a name states a change or a piece, a line headed by the entry shows the natural chain unless it says otherwise.
# UniProt P62318, whole entry: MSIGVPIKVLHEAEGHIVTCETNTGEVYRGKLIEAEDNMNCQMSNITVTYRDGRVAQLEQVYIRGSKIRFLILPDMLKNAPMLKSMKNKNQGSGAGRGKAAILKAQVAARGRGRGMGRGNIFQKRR
# UniProt Q00610: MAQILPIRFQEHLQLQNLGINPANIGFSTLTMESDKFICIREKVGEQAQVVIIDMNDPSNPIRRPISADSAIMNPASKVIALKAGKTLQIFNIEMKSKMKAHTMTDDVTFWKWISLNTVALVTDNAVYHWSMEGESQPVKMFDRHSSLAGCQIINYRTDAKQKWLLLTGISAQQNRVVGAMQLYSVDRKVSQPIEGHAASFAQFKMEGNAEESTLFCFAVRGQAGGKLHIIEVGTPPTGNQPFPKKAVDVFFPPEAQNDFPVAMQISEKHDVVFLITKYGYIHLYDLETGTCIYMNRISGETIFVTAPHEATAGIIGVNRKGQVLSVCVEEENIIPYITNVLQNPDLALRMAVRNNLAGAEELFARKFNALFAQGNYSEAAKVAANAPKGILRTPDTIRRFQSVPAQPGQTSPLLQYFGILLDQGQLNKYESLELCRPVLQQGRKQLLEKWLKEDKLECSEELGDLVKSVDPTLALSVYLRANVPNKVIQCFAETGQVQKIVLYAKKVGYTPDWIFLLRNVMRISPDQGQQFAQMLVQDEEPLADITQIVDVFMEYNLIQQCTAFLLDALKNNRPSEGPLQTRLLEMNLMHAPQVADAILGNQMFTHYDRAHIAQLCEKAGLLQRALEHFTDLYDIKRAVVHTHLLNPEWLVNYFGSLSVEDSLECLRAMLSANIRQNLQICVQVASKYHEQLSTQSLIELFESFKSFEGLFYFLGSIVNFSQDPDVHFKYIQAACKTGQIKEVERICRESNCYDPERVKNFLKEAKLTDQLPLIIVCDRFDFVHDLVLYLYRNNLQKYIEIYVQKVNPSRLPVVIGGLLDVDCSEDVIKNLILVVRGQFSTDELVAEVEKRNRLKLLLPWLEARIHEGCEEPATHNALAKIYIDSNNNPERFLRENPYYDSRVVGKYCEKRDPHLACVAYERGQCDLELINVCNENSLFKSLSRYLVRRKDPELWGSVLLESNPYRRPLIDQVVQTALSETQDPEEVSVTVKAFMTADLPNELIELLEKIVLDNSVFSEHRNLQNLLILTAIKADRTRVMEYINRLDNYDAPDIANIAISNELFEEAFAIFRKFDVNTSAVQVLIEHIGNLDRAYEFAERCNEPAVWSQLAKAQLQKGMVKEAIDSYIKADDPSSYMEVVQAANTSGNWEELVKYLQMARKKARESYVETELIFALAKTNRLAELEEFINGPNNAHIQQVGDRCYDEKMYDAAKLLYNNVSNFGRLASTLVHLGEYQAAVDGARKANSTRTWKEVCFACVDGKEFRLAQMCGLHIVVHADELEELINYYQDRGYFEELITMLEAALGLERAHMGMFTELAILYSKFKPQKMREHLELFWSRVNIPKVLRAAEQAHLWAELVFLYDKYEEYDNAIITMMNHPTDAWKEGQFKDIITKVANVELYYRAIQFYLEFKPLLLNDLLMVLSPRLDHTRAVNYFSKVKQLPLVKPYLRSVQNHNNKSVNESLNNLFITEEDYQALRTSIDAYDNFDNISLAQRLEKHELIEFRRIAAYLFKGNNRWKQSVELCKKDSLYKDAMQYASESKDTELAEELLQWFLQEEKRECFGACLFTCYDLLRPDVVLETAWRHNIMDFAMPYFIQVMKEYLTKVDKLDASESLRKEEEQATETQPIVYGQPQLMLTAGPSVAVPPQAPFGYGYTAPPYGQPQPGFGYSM
# UniProt P62834: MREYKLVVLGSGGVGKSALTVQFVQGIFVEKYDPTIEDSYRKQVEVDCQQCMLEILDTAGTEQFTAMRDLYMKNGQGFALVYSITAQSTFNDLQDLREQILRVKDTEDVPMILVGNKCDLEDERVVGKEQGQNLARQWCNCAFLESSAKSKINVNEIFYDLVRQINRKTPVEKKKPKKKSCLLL
# UniProt P78527, whole entry, looked up: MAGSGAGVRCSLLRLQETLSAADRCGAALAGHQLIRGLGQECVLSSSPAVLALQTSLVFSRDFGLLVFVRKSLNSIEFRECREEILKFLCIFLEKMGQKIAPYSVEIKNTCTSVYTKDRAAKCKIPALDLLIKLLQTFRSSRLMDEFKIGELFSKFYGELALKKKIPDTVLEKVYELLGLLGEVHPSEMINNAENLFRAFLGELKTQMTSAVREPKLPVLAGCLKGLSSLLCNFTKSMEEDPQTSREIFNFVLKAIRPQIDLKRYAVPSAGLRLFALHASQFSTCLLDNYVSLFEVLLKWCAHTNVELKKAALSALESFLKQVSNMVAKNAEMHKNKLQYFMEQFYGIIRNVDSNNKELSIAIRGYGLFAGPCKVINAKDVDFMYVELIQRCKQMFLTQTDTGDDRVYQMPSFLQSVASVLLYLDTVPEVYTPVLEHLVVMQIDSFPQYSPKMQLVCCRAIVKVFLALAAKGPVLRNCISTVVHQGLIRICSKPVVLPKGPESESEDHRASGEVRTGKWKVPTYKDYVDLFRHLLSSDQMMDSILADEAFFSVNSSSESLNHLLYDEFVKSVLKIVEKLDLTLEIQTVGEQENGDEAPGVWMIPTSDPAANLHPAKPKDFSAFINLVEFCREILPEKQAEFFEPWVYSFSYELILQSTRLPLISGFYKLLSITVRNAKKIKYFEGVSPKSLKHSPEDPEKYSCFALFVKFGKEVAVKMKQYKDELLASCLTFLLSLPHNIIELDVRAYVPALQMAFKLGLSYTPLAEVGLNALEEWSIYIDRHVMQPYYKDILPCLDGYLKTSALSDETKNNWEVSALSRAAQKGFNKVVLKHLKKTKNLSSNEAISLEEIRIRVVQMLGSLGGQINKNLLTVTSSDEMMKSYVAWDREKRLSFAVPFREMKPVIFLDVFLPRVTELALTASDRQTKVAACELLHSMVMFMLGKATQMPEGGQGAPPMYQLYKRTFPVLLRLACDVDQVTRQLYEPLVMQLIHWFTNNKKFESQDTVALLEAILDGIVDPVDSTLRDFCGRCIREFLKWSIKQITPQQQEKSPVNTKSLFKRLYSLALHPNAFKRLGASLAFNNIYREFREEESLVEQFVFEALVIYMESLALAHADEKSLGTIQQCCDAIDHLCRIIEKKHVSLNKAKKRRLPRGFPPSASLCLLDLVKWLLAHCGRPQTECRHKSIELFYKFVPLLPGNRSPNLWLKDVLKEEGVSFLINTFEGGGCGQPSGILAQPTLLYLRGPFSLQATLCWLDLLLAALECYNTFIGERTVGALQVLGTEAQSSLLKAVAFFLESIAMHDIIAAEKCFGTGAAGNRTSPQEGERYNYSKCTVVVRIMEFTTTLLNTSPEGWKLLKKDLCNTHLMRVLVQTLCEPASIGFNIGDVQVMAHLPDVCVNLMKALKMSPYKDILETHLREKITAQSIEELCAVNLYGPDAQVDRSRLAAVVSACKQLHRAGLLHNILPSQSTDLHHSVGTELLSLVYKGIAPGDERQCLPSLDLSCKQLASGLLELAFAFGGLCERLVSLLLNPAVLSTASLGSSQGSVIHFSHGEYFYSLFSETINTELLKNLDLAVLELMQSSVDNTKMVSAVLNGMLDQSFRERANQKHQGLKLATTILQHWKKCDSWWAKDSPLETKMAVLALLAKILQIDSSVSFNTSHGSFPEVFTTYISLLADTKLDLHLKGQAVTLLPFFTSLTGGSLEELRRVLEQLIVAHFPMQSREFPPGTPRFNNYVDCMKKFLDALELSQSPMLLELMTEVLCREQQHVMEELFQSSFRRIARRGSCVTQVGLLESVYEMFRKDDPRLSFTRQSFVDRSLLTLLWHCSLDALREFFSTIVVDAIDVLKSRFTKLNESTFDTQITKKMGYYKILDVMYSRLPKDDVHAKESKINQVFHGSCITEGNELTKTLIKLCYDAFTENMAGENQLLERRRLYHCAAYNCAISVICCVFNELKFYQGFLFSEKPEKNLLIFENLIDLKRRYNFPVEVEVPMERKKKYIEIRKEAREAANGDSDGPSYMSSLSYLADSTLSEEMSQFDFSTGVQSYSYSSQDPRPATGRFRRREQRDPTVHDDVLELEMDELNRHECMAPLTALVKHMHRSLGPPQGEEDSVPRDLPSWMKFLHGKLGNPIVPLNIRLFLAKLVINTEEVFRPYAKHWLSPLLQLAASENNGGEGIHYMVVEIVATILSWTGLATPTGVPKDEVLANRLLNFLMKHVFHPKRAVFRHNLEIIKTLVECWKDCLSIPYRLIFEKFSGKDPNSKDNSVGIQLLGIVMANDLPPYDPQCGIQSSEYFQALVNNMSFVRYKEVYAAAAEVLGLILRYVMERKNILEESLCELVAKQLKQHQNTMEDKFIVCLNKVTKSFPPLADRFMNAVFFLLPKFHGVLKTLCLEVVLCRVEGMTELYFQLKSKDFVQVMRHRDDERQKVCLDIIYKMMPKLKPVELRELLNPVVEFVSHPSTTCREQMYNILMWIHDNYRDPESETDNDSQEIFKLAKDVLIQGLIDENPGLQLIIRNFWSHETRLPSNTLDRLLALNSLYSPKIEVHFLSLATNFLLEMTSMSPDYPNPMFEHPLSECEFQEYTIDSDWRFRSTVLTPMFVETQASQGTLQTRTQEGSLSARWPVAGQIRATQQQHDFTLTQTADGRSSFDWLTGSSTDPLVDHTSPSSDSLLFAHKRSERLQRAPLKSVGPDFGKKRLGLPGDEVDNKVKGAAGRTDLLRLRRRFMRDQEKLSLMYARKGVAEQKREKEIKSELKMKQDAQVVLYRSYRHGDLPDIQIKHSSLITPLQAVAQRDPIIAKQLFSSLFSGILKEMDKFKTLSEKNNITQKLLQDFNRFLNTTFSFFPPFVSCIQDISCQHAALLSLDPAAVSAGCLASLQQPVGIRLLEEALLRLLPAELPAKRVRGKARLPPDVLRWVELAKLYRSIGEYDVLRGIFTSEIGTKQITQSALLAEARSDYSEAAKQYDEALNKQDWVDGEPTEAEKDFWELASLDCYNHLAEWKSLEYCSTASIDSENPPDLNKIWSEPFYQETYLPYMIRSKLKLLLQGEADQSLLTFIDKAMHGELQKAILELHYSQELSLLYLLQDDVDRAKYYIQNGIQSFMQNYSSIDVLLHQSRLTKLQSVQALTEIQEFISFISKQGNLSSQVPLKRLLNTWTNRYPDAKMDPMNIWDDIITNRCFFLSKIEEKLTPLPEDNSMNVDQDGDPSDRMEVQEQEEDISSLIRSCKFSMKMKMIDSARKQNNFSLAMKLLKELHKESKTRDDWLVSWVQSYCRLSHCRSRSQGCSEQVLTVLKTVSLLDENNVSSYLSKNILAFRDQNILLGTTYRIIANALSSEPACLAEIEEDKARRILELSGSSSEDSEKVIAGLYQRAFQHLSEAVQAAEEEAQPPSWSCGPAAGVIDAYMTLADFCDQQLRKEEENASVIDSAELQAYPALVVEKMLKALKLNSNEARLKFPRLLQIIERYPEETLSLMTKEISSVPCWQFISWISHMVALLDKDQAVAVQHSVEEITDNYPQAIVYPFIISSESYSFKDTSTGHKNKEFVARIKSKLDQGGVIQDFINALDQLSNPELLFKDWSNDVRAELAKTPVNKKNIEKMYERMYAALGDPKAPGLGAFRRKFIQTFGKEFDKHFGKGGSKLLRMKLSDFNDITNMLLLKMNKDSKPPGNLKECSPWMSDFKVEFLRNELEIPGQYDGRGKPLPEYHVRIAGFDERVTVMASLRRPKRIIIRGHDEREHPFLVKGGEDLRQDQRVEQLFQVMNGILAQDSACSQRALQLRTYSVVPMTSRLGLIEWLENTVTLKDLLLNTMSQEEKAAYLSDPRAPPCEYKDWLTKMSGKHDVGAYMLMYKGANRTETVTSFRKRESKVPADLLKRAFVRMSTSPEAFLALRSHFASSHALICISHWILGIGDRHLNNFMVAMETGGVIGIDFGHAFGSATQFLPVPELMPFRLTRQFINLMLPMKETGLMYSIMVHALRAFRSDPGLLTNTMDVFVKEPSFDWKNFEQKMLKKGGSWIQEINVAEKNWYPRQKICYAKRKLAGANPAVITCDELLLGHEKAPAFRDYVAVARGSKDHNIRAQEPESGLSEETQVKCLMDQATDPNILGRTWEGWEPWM
# UniProt P68104, whole entry, looked up: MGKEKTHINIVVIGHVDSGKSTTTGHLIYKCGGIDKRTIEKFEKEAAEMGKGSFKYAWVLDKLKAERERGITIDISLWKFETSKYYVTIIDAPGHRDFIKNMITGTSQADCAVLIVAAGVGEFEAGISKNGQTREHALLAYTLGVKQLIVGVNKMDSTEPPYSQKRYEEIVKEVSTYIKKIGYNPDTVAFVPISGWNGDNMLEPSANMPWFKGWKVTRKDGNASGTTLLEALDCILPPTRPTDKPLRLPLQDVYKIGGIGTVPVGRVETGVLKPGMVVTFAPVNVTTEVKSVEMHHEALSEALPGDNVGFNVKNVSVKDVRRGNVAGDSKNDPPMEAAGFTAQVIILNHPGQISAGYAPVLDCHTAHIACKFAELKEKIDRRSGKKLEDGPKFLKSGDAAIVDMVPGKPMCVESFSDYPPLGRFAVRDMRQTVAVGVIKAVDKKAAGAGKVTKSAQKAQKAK
# The list shows a part of the results, in another mix than the full data.
# Compound: COC(=O)C#Cc1ccccc1 [methyl 3-phenylpropiolate]
# Assay: log2 ratio of iodoacetamide-alkyne labeling of the cysteine site, DMSO over compound (competition); higher = stronger covalent engagement of the cysteine by the compound, active = 1 or more
# Details: 500 µM; treatment time 1 h; system: HEK293T cell lysate
# In short: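 Electrophile (500 µM) or vehicle was added to HEK293T lysate (2 mg/mL) for 1 h at ambient temperature before iodoacetamide alkyne labelling (1 h) and click coupling to sCIP-TMT reagents. After pooling, overnight trypsin digestion at 37 °C, streptavidin enrichment and acid elution, peptides were measured by Orbitrap Eclipse LC-MS/MS with FAIMS and quantified in FragPipe. Each cysteine's log2 competition ratio compares mean control-channel with mean compound-channel reporter intensity, control over compound. Data came from duplicate channels across three replicates, excluding cysteines quantified in only one replicate.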
row,Target,log2 ratio of iodoacetamide-alkyne labeling
1,NFKB2 C57 (UniProt Q00653),active: 1.24
2,UniProt P62318_C20,inactive: 0.0377
3,CDK5 C290 (UniProt Q00535),inactive: 0.0413
4,SORD C45 (UniProt Q00796),inactive: -0.0713
5,UniProt Q02040_C579,inactive: 0.722
6,MRPS11 C112 (UniProt P82912),inactive: 0.115
7,PFKP C112 (UniProt Q01813),inactive: 0.188
8,UniProt P62701_C181,inactive: -0.0747
9,UniProt P62917_C90,inactive: -0.176
10,MPP1 C242 (UniProt Q00013),inactive: 0.479
11,CLTC C1102 (UniProt Q00610),inactive: -0.0118
12,UniProt P62834_C141,inactive: 0.00921
13,CNBP C111 (UniProt P62633),inactive: -0.136
14,XPC C60 (UniProt Q01831),inactive: 0.493
15,SORD C106 (UniProt Q00796),inactive: 0.238
16,UniProt P78527_C2342,inactive: 0.391
17,RPS27A C126 (UniProt P62979),inactive: 0.124
18,RPS21 C56 (UniProt P63220),inactive: 0.636
19,UniProt P62273_C39,inactive: 0.0855

row,Target,log2 ratio of iodoacetamide-alkyne labeling
1,CNBP C161 (UniProt P62633),inactive: 0.05
2,UniProt Q00341_C636,inactive: 0.127
3,UniProt P84085_C62,inactive: -0.062
4,CLTC C926 (UniProt Q00610),inactive: -0.0468
5,GNAS C174 (UniProt P63092),inactive: -0.492
6,UniProt P78527_C2093,inactive: 0.236
7,UniProt P62987_C91,inactive: 0.871
8,KIF23 C42 (UniProt Q02241),inactive: 0.234
9,OTUD4 C903 (UniProt Q01804),inactive: 0.488
10,ATP2C1 C162 (UniProt P98194),inactive: 0.0772
11,UniProt P78527_C3683,inactive: 0.491
12,HNRNPU C389 (UniProt Q00839),inactive: 0.378
13,RPL18A C137 (UniProt Q02543),inactive: 0.487
14,UniProt P78527_C223,inactive: 0.33
15,ATP2C1 C49 (UniProt P98194),inactive: 0.317
16,EEF1A1 C111 (UniProt P68104),inactive: -0.0043
17,REEP5 C18 (UniProt Q00765),inactive: 0.482
18,CCT2 C535 (UniProt P78371),inactive: 0.0576

# A different layout for some results above.
row | Target | log2 ratio of iodoacetamide-alkyne labeling
3 | UniProt P84085_C62 | inactive: -0.062
4 | CLTC C926 (UniProt Q00610) | inactive: -0.0468
5 | GNAS C174 (UniProt P63092) | inactive: -0.492
6 | UniProt P78527_C2093 | inactive: 0.236
7 | UniProt P62987_C91 | inactive: 0.871
8 | KIF23 C42 (UniProt Q02241) | inactive: 0.234
9 | OTUD4 C903 (UniProt Q01804) | inactive: 0.488
